Data on 2 substances can be found in paper PMC7060279.

Chains of the proteins cited; added tags and fusions are not shown. Lines headed by an entry give the natural chain unless they say otherwise; changes in a name come on top. Residues count along the entry.
UniProt P18406: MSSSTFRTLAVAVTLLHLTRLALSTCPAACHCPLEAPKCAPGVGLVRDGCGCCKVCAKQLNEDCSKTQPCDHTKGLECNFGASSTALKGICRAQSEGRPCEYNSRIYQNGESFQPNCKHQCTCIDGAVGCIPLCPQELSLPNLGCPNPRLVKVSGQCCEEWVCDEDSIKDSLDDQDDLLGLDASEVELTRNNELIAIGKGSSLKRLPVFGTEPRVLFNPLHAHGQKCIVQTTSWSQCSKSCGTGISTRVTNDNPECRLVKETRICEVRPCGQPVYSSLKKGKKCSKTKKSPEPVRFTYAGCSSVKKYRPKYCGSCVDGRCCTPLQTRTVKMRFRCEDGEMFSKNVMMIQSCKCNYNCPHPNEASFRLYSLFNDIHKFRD
UniProt O60603, residues 21-588: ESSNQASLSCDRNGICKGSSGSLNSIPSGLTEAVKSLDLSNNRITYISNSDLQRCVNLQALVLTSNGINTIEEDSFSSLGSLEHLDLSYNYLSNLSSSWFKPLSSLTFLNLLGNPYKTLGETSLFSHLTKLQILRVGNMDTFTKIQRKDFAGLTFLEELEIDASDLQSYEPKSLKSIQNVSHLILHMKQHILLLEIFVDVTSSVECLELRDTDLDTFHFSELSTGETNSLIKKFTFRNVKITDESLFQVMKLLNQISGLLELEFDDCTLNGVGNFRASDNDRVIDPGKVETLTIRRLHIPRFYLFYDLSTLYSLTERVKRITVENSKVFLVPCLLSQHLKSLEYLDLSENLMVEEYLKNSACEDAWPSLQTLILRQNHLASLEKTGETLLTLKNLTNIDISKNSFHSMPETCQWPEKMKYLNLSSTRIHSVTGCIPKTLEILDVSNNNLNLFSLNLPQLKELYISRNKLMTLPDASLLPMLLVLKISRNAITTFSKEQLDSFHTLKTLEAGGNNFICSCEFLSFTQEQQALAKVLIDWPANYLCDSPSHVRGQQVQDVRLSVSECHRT
UniProt O00206, residues 24-631: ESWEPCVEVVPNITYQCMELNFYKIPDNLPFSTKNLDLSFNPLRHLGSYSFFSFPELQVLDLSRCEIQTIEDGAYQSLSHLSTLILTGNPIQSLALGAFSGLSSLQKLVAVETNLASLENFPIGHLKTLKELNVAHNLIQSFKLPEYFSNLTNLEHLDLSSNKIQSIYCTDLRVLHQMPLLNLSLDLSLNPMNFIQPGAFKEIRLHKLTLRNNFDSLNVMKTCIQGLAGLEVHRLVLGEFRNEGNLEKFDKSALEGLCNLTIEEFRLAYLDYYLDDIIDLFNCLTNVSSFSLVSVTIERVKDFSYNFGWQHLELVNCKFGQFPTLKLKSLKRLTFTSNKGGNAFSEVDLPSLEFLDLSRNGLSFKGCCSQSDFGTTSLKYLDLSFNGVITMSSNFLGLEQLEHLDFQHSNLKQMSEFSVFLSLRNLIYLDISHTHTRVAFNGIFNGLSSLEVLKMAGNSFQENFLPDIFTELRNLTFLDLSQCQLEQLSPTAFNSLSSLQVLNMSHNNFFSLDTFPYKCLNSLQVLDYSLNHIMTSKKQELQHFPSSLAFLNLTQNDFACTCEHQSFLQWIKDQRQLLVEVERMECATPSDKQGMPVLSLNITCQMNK

These are yes or no findings as the source states them, for the method shown. For some assays here: Binding calls can cover weak binding; strength is not graded here.

Assay [1] concerns the target CCN1-DM mutant protein (UniProt P18406). The assay is described as follows: condition: 5 µg in 5 ml PBS (methods); 2 µg in PBS; far-Western, overlay or dot blot; dot blot: CCN1-WT, -D125A and -DM (1 µg each) spotted on nitrocellulose, incubated with hTLR2 or hTLR4 in PBS; bound TLRs detected with polyclonal anti-hTLR2 or anti-hTLR4 antibodies; both purified.
The target is the same in assay [2]. In words: far-Western, overlay or dot blot; dot blot: CCN1-WT, -D125A and -DM (1 µg each) spotted on nitrocellulose, incubated with hTLR2 or hTLR4 in PBS; bound TLRs detected with polyclonal anti-hTLR2 or anti-hTLR4 antibodies; both purified.

Consider “human recombinant TLR2 protein (from UniProt O60603 21-588) (receptor)”, for which the binding entry in assay [1] is recorded as “no binding”.

On to “human recombinant TLR4 protein (without MD2) (from UniProt O00206 24-631) (receptor)”, for which the binding result in assay [2] was “binds”.
